{"source": "patent US7399638B2", "about": "“Prediction method for lipidosis” (Takeda Pharmaceutical Company Limited, priority 2003, dated 2008)", "key": {"Crj: CD(SD)IGS rats [1]": {"tested_on": "Crj: CD(SD)IGS rats", "settings": "male, rat, in vivo, 3 days", "experimental": "The following 10 kinds of commercially available drugs were examined as the test compounds for a potential of inducing PLsis by histopathological examination and peripheral blood lymphocyte testing.\nThe following experiments were performed using the prematurely autopsied animals.\nThe high-dose dosing suspension was diluted about 3 fold and 10 fold with dispersant/solvent to prepare intermediate- and low-dose dosing suspensions. […] [For LD50, the Summary Basis of Approval (FDA) for each drug was referenced to.]\nThe animals were examined for mortality, general conditions, body weight, food consumption and the like using PM4800 (Mettler) and EB3200D (Shimadzu Corporation).\nHematological examination was performed for parameters such as RBC count, hematocrit, hemoglobin concentration, mean corpuscular hemoglobin (MCH), mean corpuscular hemoglobin concentration (MCHC), mean corpuscular volume (MCV), platelet count, WBC count, reticulocyte count, differential WBC, and vacuolated lymphocyte ratio (for PLsis-inducing compounds only) using ADVIA120 (Bayer Medical Ltd.) and E-4000 (Sysmex Corporation)."}, "male cynomolgus monkeys [2]": {"tested_on": "male cynomolgus monkeys", "test": "Urinary PAGN/hippuric acid ratio by 1H NMR in monkeys", "format": "in vivo, cynomolgus monkey", "settings": "for PAGN/hippuric acid ratio compared to the control group: cynomolgus monkey urine, gavage 7 days; for Urinary PAGN/hippuric acid ratio: male cynomolgus monkey", "experimental": "(§1) Subsequently, the animals were allocated to four groups (5 animals in total) comprising 2 animals in the control group and 1 male in each treatment group, respectively.\n(§2) The high-dose dosing suspension was diluted with the dispersant/solvent to prepare a low-dose dosing suspension.\nPooled urine was collected from the monkeys in the Example above under fasting for about 6 hours in the pre-dosing period (Pre), on the first day of administration (Day 0), and on days 2 and 6 of treatment period (Days 2 and 6).\n^1H NMR was performed as described below. Reagents were used without purification. Heavy water (D2O) was purchased from ISOTEC. […] INC (USA).\nA phosphate buffer solution was prepared as described below.\nOperating conditions were set as shown below."}, "male cynomolgus monkeys [3]": {"tested_on": "male cynomolgus monkeys", "settings": "cynomolgus monkey, in vivo, 300 mg/kg", "experimental": "Amiodarone and perhexiline were purchased from SIGMA Company.\nas §1, §2\nAfter completion of the administration, livers, kidneys, hearts, spleens, lungs, mesenteric lymph nodes, eyeballs, testes and brains were collected from all animals, and examined for histopathological changes by conventional method of optical microscopy. Additionally, blood samples were collected in the pre-dosing period, on the first day of administration, and on days 2 and 6 of treatment period, blood smear specimens were prepared, and vacuolated lymphocyte ratios were determined."}, "Crj: CD(SD)IGS rats [4]": {"tested_on": "Crj: CD(SD)IGS rats", "settings": "rat urine, LC-MS/MS, 300 mg/kg/day by gavage for 7 days"}, "[5]": {"settings": "in vivo; cited from earlier work"}, "Crj: CD(SD)IGS rats [6]": {"tested_on": "Crj: CD(SD)IGS rats", "test": "Urinary PAG/hippuric acid ratio by 1H NMR in rats", "settings": "rat urine, 3 days, mean n = 3-4"}}, "note": "Read-outs that look alike come from different tables or passages of the source. Marks after values point to notes of the source that are not given here.", "data": [{"compound": "CCCCc1oc2ccccc2c1C(=O)c1cc(I)c(OCCN(CC)CC)c(I)c1", "note": "[Amiodarone]", "values": [{"measurement": "Mean vacuolated lymphocyte ratio", "setting": "Crj: CD(SD)IGS rats [1]; 100 mg/kg/day", "value": 1, "unit": "%"}, {"measurement": "Mean vacuolated lymphocyte ratio", "setting": "Crj: CD(SD)IGS rats [1]; 300 mg/kg/day", "value": 33, "unit": "%"}, {"measurement": "Mean vacuolated lymphocyte ratio", "setting": "Crj: CD(SD)IGS rats [1]; 1000 mg/kg/day", "value": 40, "unit": "%"}, {"measurement": "PAGN/hippuric acid ratio compared to the control group", "setting": "male cynomolgus monkeys [2]; 60 mg/kg", "value": "no significant difference"}, {"measurement": "PAGN/hippuric acid ratio compared to the control group", "setting": "male cynomolgus monkeys [2]; 300 mg/kg", "value": "increased"}, {"measurement": "Urinary PAGN/hippuric acid ratio", "setting": "male cynomolgus monkeys [2]; 60 mg/kg/day by gavage for 7 days, Day 0, 1 animal", "value": 1.87}, {"measurement": "Urinary PAGN/hippuric acid ratio", "setting": "male cynomolgus monkeys [2]; 60 mg/kg/day by gavage for 7 days, Day 2, 1 animal", "value": 1.79}, {"measurement": "Urinary PAGN/hippuric acid ratio", "setting": "male cynomolgus monkeys [2]; 60 mg/kg/day by gavage for 7 days, Day 6, 1 animal", "value": 3.87}, {"measurement": "Urinary PAGN/hippuric acid ratio", "setting": "male cynomolgus monkeys [2]; 60 mg/kg/day by gavage for 7 days, Pre (pre-dosing period), 1 animal", "value": 1.05}, {"measurement": "Urinary PAGN/hippuric acid ratio", "setting": "male cynomolgus monkeys [2]; 300 mg/kg/day by gavage for 7 days, Day 0, 1 animal", "value": 1.11}, {"measurement": "Urinary PAGN/hippuric acid ratio", "setting": "male cynomolgus monkeys [2]; 300 mg/kg/day by gavage for 7 days, Day 2, 1 animal", "value": 3.04}, {"measurement": "Urinary PAGN/hippuric acid ratio", "setting": "male cynomolgus monkeys [2]; 300 mg/kg/day by gavage for 7 days, Day 6, 1 animal", "value": "↑17.62"}, {"measurement": "Urinary PAGN/hippuric acid ratio", "setting": "male cynomolgus monkeys [2]; 300 mg/kg/day by gavage for 7 days, Pre (pre-dosing period), 1 animal", "value": 1.22}, {"measurement": "Vacuolated lymphocyte ratio", "setting": "male cynomolgus monkeys [3]", "value": "increase"}, {"measurement": "PAG/hippuric acid concentration ratio compared to the control group", "setting": "Crj: CD(SD)IGS rats [4]", "value": "increased"}, {"measurement": "PAG/hippuric acid ratio", "setting": "Crj: CD(SD)IGS rats [4]; mean ± SD n = 4", "value": "0.8850 ± 0.4434"}, {"measurement": "LD50", "setting": "[5]", "value": "not less than 3000 mg/kg"}, {"measurement": "PAG + hippuric acid/creatinine", "setting": "Crj: CD(SD)IGS rats [6]; 100 mg/kg/day by gavage", "value": 1.69}, {"measurement": "PAG/PAG + hippuric acid", "setting": "Crj: CD(SD)IGS rats [6]; 100 mg/kg/day by gavage", "value": 13.68, "unit": "%"}, {"measurement": "PAG/creatinine (first term of PAG + hippuric acid)", "setting": "Crj: CD(SD)IGS rats [6]; 100 mg/kg/day by gavage", "value": 0.23}, {"measurement": "PAG/hippuric acid", "setting": "Crj: CD(SD)IGS rats [6]; 100 mg/kg/day by gavage", "value": 16.12, "unit": "%"}, {"measurement": "PAG + hippuric acid/creatinine", "setting": "Crj: CD(SD)IGS rats [6]; 300 mg/kg/day by gavage", "value": 1.56}, {"measurement": "PAG/PAG + hippuric acid", "setting": "Crj: CD(SD)IGS rats [6]; 300 mg/kg/day by gavage", "value": "33.94* %"}, {"measurement": "PAG/creatinine (first term of PAG + hippuric acid)", "setting": "Crj: CD(SD)IGS rats [6]; 300 mg/kg/day by gavage", "value": 0.53}, {"measurement": "PAG/hippuric acid", "setting": "Crj: CD(SD)IGS rats [6]; 300 mg/kg/day by gavage", "value": "52.41* %"}, {"measurement": "hippuric acid/creatinine (second term of PAG + hippuric acid)", "setting": "Crj: CD(SD)IGS rats [6]; 300 mg/kg/day by gavage", "value": 1.04}, {"measurement": "PAG + hippuric acid/creatinine", "setting": "Crj: CD(SD)IGS rats [6]; 1000 mg/kg/day by gavage", "value": 1.32}, {"measurement": "PAG/PAG + hippuric acid", "setting": "Crj: CD(SD)IGS rats [6]; 1000 mg/kg/day by gavage", "value": "53.66* %"}, {"measurement": "PAG/creatinine (first term of PAG + hippuric acid)", "setting": "Crj: CD(SD)IGS rats [6]; 1000 mg/kg/day by gavage", "value": 0.71}, {"measurement": "PAG/hippuric acid", "setting": "Crj: CD(SD)IGS rats [6]; 1000 mg/kg/day by gavage", "value": "127.48* %"}, {"measurement": "hippuric acid/creatinine (second term of PAG + hippuric acid)", "setting": "Crj: CD(SD)IGS rats [6]; 1000 mg/kg/day by gavage", "value": 0.60}]}]}
